Measured values as given in patent publication US20200332015A1.
No constants are given. Whether binding was seen depends on the method and setting. Some entries that bind do so weakly or less than the wild type.

Protein sequences, listed by entry. Tags and fused reporters are not part of them. Lines headed by an entry give the natural chain unless they say otherwise; changes in a name come on top. Residues count along the entry.
UniProt Q07011: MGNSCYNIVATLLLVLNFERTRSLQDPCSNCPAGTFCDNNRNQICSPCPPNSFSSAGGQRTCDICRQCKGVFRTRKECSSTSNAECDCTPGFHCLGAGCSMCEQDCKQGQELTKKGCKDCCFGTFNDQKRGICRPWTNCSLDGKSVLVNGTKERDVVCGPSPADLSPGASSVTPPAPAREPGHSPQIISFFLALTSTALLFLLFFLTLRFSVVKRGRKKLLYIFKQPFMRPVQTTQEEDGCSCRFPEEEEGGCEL
UniProt P41273, residues 50-254: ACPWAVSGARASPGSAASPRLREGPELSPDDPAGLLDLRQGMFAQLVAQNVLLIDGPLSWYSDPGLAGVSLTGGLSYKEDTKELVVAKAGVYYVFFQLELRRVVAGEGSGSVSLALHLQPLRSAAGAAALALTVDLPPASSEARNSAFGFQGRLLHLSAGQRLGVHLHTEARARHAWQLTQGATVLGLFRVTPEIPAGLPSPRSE

Biological target: recombinant human CD137 extracellular domain (Peprotech, cat. 310-15-1MG) (human) (UniProt Q07011)
Experiment: flow cytometry, binder on protein G beads, R-PE labeled CD137 ECD

CD137L ECD fused to the Fc part of a human IgG1 (from UniProt P41273 50-254) (Fc fusion)
binding: binds
